# No constants are given. Whether binding was seen depends on the method and setting. In cells and extracts the contact can be indirect. Some results given as binding are weak or reduced against the parent protein; the word gives no strength. Sequences can lack the tags named with a protein.
# Amino acid sequences for entries named in this document (tags omitted).
# UniProt Q9UI95: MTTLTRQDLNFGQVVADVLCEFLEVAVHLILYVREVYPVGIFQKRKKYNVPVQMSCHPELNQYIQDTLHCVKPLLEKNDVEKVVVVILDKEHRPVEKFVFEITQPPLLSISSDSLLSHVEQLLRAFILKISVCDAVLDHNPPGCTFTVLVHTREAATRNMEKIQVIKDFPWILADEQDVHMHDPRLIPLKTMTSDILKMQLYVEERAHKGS
# B1: GFP-SHLD2 (protein, UniProt Q86V20-2 1-904)
# chain: MSGGSQVHIFWGAPIAPLKITVSEDTASLMSVADPWKKIQLLYSQHSLYLKDEKQHKNLENYKVPESIGSPDLSGHFLANCMNRHVHVKDDFVRSVSETQNIESQKIHSSRLSDITSSNMQICGFKSTVPHFTEEEKYQKLLSENKIRDEQPKHQPDICGKNFNTNLFQLGHKCAAVLDLVCSTEKINIGPEVVQRECVPTEYHEIQNQCLGLFSSNAVDKSRSEAAVRKVSDLKISTDTEFLSIITSSQVAFLAQKKDKRRSPVNKGNVNMETEPKASYGEIRIPEENSIQLDGFTEAYESGQNQAYSLELFSPVCPKTENSRIHINSDKGLEEHTGSQELFSSEDELPPNEIRIELCSSGILCSQLNTFHKSAIKRSCTSEDKVGQSEALSRVLQVAKKMKLISNGGDSAVEMDRRNVSEFKSIKKTSLIKNCDSKSQKYNCLVMVLSPCHVKEINIKFGPNSGSKVPLATVTVIDQSETKKKVFLWRTAAFWAFTVFLGDIILLTDVVIHEDQWIGETVLQSTFSSQLLNLGSYSSIQPEEYSSVVSEVVLQDLLAYVSSKHSYLRDLPPRQPQRVNSIDFVELEHLQPDVLVHAVLRVVDFTILTEAVYSYRGQKQKKVMLTVEQAQDQHYALVLWGPGAAWYPQLQRKKGYIWEFKYLFVQCNYTLENLELHTTPWSSCECLFDDDIRAITFKAKFQKSAPSFVKISDLATHLEDKCSGVVLIKAQISELAFPITASQKIALNAHSSLKSIFSSLPNIVYTGCAKCGLELETDENRIYKQCFSCLPFTMKKIYYRPALMTAIDGRHDVCIRVESKLIEKILLNISADCLNRVIVPSSEITYGMVVADLFHSLLAVSAEPCVLKIQSLFVLDENSYPLQQDFSLLDFYPDIVKHGANARL
# B2: GFP-SHLD1 (protein, UniProt Q8IYI0 1-205)
# chain: MAARDATSGSLSEESSALDLPSACDIRDYVLQGPSQEANSEAFSSLEFHSFPYSSDVDPDTSNLNIEQNNSWTAENFWLDPAVKGQSEKEEDDGLRKSLDRFYEMFGHPQPGSANSLSASVCKCLSQKITQLRGQESQKYALRSFQMARVIFNRDGCSVLQRHSRDTHFYPLEEGSTSLDDEKPNPGLSKDITHFLLQQNVMKDL
# Tests used:
# Flag-REV7 (human) = Flag-REV7 (human) (UniProt Q9UI95); assay: co-IP; HEK293T co-transfected with Flag- and GFP-tagged vectors; DMSO or 10 uM ATM inhibitor KU-60019 1 h before irradiation (10 Gy); lysis in 50 mM Tris, 300 mM NaCl, 1 mM EDTA, 1% Triton X-100; nuclear extracts with benzonase; anti-Flag (M2) resin, 4 C, 2 h; immunoblot for GFP
# Flag-SHLD2 (human) = target: T1, Flag-SHLD2 (human) (UniProt Q86V20); assay: as above
# T1 sequence: B1 chain
Binder,binding (Flag-REV7 (human)),binding (Flag-SHLD2 (human))
B1,binds,
B2,binds,binds
